{"sequences": {"note": "Sequences of proteins named here, by UniProt entry; tags and fusion partners are left off.", "UniProt Q8R4B8": "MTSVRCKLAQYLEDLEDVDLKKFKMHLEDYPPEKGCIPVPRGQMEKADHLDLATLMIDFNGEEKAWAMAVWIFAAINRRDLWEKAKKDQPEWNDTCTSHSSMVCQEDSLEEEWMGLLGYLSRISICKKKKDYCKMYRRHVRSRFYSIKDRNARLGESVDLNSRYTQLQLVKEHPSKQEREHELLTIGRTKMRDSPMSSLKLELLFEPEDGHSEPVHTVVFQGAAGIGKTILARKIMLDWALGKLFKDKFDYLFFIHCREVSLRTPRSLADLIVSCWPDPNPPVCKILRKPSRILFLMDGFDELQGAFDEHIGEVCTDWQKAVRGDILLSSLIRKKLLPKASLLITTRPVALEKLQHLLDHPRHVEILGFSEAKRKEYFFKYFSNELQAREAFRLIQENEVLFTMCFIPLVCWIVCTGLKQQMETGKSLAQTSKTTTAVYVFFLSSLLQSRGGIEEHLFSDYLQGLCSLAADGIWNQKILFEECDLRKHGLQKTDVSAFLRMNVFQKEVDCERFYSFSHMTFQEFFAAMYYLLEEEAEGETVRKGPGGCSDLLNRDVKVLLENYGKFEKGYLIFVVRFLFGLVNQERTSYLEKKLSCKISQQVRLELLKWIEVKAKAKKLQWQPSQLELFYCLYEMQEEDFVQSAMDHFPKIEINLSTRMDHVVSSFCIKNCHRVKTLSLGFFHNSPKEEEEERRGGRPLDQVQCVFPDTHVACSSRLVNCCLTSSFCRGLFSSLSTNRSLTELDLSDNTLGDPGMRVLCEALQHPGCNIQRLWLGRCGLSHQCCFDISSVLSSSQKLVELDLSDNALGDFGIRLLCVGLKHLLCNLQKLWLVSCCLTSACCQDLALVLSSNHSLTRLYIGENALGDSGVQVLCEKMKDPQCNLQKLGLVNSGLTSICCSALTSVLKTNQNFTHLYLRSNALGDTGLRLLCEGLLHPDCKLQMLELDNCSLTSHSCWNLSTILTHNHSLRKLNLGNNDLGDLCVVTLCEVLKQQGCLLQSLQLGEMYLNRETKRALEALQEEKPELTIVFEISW"}, "source": "paper PMC9592212", "key": {"[1]": {"molecular_target": "T1, thioredoxin-interacting protein (mouse (endogenous in BMDMs)) (UniProt Q8BG60)", "T1 sequence": "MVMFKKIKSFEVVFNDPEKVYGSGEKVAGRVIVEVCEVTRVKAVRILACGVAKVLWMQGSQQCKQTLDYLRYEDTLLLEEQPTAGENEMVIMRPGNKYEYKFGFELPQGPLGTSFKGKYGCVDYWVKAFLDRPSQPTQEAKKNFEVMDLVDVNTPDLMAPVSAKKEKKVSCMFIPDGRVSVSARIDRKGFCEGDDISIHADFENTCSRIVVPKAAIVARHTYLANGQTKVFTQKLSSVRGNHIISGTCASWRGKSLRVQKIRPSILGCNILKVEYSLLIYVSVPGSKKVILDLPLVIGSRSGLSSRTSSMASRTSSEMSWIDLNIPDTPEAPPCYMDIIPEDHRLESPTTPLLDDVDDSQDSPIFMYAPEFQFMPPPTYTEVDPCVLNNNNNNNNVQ", "assay": "condition: only cells treated with corilagin (40 μM) before nigericin; co-IP; as a1, but LPS-primed BMDMs incubated with corilagin (40 μM) for 30 min before nigericin for 1 h; anti-TXNIP precipitation"}, "[2]": {"molecular_target": "T1, thioredoxin-interacting protein (mouse (endogenous in BMDMs))", "assay": "co-IP; lysates of LPS-primed mouse BMDMs stimulated with nigericin (1 h) or MSU (also with corilagin 40 μM and imiquimod 70 μM in the MSU experiment); anti-TXNIP antibody or IgG at 4°C overnight, protein A/G agarose beads, blot for NLRP3"}}, "note": "These are yes or no findings as the source states them, for the method shown. Binding seen in cells or lysates may run through a third protein. Some binding calls cover weakened binding; strength is not graded here."}
{"substance": "NLR family pyrin domain-containing protein 3 (from UniProt Q8R4B8 1-1033)", "values": [{"measurement": "binding", "setting": "[1]", "value": "no binding"}, {"measurement": "binding", "setting": "[2]", "value": "binds"}]}
